The text below walks through data of patent publication US20060257938A1, “Method of screening for drugs that block ligand binding to a lipid binding protein” (priority 2005, published 2006).

B1: 34E, 72A (protein, listed as Rattus norvegicus)
chain: AFDGTWKVDRNENYEKFMEKMGINVVKRKLGAHENLKLTITQEGNKFTVKESSNFRNIDVVFELGVDFAYSAADGTELTGTWTMEGNKLVGKFKRVDNGKELIAVREISGNELIQTYTYEGVEAKRIFKKE
modifications: PEPTIDE (1)...(131) wild-type rat intestinal fatty acid binding protein
B2: 31K2, 72A (protein, listed as Rattus norvegicus)
chain: AFDGTWKVDRNENYEKFMEKMGINVVKRKLKAHDNLKLTITQEGNKFTVKESSNFRNIDVVFELGVDFAYSAADGTELTGTWTMEGNKLVGKFKRVDNGKELIAVREISGNELIQTYTYEGVEAKRIFKKE
modifications: PEPTIDE (1)...(131) wild-type rat intestinal fatty acid binding protein
B3: 34R, 72A (protein, listed as Rattus norvegicus)
chain: AFDGTWKVDRNENYEKFMEKMGINVVKRKLGAHRNLKLTITQEGNKFTVKESSNFRNIDVVFELGVDFAYSAADGTELTGTWTMEGNKLVGKFKRVDNGKELIAVREISGNELIQTYTYEGVEAKRIFKKE
modifications: PEPTIDE (1)...(131) wild-type rat intestinal fatty acid binding protein
B4: 31P1, 72A (protein, listed as Rattus norvegicus)
chain: AFDGTWKVDRNENYEKFMEKMGINVVKRKLPAHDNLKLTITQEGNKFTVKESSNFRNIDVVFELGVDFAYSAADGTELTGTWTMEGNKLVGKFKRVDNGKELIAVREISGNELIQTYTYEGVEAKRIFKKE
modifications: PEPTIDE (1)...(131) wild-type rat intestinal fatty acid binding protein
B5: 31R1, 72A (protein, listed as Rattus norvegicus)
chain: AFDGTWKVDRNENYEKFMEKMGINVVKRKLRAHDNLKLTITQEGNKFTVKESSNFRNIDVVFELGVDFAYSAADGTELTGTWTMEGNKLVGKFKRVDNGKELIAVREISGNELIQTYTYEGVEAKRIFKKE
modifications: PEPTIDE (1)...(131) wild-type rat intestinal fatty acid binding protein
B6: 31N2, 72A (protein, listed as Rattus norvegicus)
chain: AFDGTWKVDRNENYEKFMEKMGINVVKRKLNAHDNLKLTITQEGNKFTVKESSNFRNIDVVFELGVDFAYSAADGTELTGTWTMEGNKLVGKFKRVDNGKELIAVREISGNELIQTYTYEGVEAKRIFKKE
modifications: PEPTIDE (1)...(131) wild-type rat intestinal fatty acid binding protein
B7: 31V2, 72A (protein, listed as Rattus norvegicus)
chain: AFDGTWKVDRNENYEKFMEKMGINVVKRKLVAHDNLKLTITQEGNKFTVKESSNFRNIDVVFELGVDFAYSAADGTELTGTWTMEGNKLVGKFKRVDNGKELIAVREISGNELIQTYTYEGVEAKRIFKKE
modifications: PEPTIDE (1)...(131) wild-type rat intestinal fatty acid binding protein
B8: 34Q, 72A (protein, listed as Rattus norvegicus)
chain: AFDGTWKVDRNENYEKFMEKMGINVVKRKLGAHQNLKLTITQEGNKFTVKESSNFRNIDVVFELGVDFAYSAADGTELTGTWTMEGNKLVGKFKRVDNGKELIAVREISGNELIQTYTYEGVEAKRIFKKE
modifications: PEPTIDE (1)...(131) wild-type rat intestinal fatty acid binding protein
B9: 31T2, 72A (protein, listed as Rattus norvegicus)
chain: AFDGTWKVDRNENYEKFMEKMGINVVKRKLTAHDNLKLTITQEGNKFTVKESSNFRNIDVVFELGVDFAYSAADGTELTGTWTMEGNKLVGKFKRVDNGKELIAVREISGNELIQTYTYEGVEAKRIFKKE
modifications: PEPTIDE (1)...(131) wild-type rat intestinal fatty acid binding protein
B10: 34G, 72A (protein, listed as Rattus norvegicus)
chain: AFDGTWKVDRNENYEKFMEKMGINVVKRKLGAHGNLKLTITQEGNKFTVKESSNFRNIDVVFELGVDFAYSAADGTELTGTWTMEGNKLVGKFKRVDNGKELIAVREISGNELIQTYTYEGVEAKRIFKKE
modifications: PEPTIDE (1)...(131) wild-type rat intestinal fatty acid binding protein
B11: 34N, 72A (protein, listed as Rattus norvegicus)
chain: AFDGTWKVDRNENYEKFMEKMGINVVKRKLGAHNNLKLTITQEGNKFTVKESSNFRNIDVVFELGVDFAYSAADGTELTGTWTMEGNKLVGKFKRVDNGKELIAVREISGNELIQTYTYEGVEAKRIFKKE
modifications: PEPTIDE (1)...(131) wild-type rat intestinal fatty acid binding protein
B12: 34S, 72A (protein, listed as Rattus norvegicus)
chain: AFDGTWKVDRNENYEKFMEKMGINVVKRKLGAHSNLKLTITQEGNKFTVKESSNFRNIDVVFELGVDFAYSAADGTELTGTWTMEGNKLVGKFKRVDNGKELIAVREISGNELIQTYTYEGVEAKRIFKKE
modifications: PEPTIDE (1)...(131) wild-type rat intestinal fatty acid binding protein
B13: 31Y1, 72A (protein, listed as Rattus norvegicus)
chain: AFDGTWKVDRNENYEKFMEKMGINVVKRKLYAHDNLKLTITQEGNKFTVKESSNFRNIDVVFELGVDFAYSAADGTELTGTWTMEGNKLVGKFKRVDNGKELIAVREISGNELIQTYTYEGVEAKRIFKKE
modifications: PEPTIDE (1)...(131) wild-type rat intestinal fatty acid binding protein
B14: 34C, 72A (protein, listed as Rattus norvegicus)
chain: AFDGTWKVDRNENYEKFMEKMGINVVKRKLGAHCNLKLTITQEGNKFTVKESSNFRNIDVVFELGVDFAYSAADGTELTGTWTMEGNKLVGKFKRVDNGKELIAVREISGNELIQTYTYEGVEAKRIFKKE
modifications: PEPTIDE (1)...(131) wild-type rat intestinal fatty acid binding protein
B15: 31M2, 72A (protein, listed as Rattus norvegicus)
chain: AFDGTWKVDRNENYEKFMEKMGINVVKRKLMAHDNLKLTITQEGNKFTVKESSNFRNIDVVFELGVDFAYSAADGTELTGTWTMEGNKLVGKFKRVDNGKELIAVREISGNELIQTYTYEGVEAKRIFKKE
modifications: PEPTIDE (1)...(131) wild-type rat intestinal fatty acid binding protein
B16: 31Y2, 72A (protein, listed as Rattus norvegicus)
chain: AFDGTWKVDRNENYEKFMEKMGINVVKRKLYAHDNLKLTITQEGNKFTVKESSNFRNIDVVFELGVDFAYSAADGTELTGTWTMEGNKLVGKFKRVDNGKELIAVREISGNELIQTYTYEGVEAKRIFKKE
modifications: PEPTIDE (1)...(131) wild-type rat intestinal fatty acid binding protein
B17: 31W2, 72A (protein, listed as Rattus norvegicus)
chain: AFDGTWKVDRNENYEKFMEKMGINVVKRKLWAHDNLKLTITQEGNKFTVKESSNFRNIDVVFELGVDFAYSAADGTELTGTWTMEGNKLVGKFKRVDNGKELIAVREISGNELIQTYTYEGVEAKRIFKKE
modifications: PEPTIDE (1)...(131) wild-type rat intestinal fatty acid binding protein
B18: 34K, 72A (protein, listed as Rattus norvegicus)
chain: AFDGTWKVDRNENYEKFMEKMGINVVKRKLGAHKNLKLTITQEGNKFTVKESSNFRNIDVVFELGVDFAYSAADGTELTGTWTMEGNKLVGKFKRVDNGKELIAVREISGNELIQTYTYEGVEAKRIFKKE
modifications: PEPTIDE (1)...(131) wild-type rat intestinal fatty acid binding protein
B19: 34A, 72A (protein, listed as Rattus norvegicus)
chain: AFDGTWKVDRNENYEKFMEKMGINVVKRKLGAHANLKLTITQEGNKFTVKESSNFRNIDVVFELGVDFAYSAADGTELTGTWTMEGNKLVGKFKRVDNGKELIAVREISGNELIQTYTYEGVEAKRIFKKE
modifications: PEPTIDE (1)...(131) wild-type rat intestinal fatty acid binding protein
B20: 31Q3, 72A (protein, listed as Rattus norvegicus)
chain: AFDGTWKVDRNENYEKFMEKMGINVVKRKLQAHDNLKLTITQEGNKFTVKESSNFRNIDVVFELGVDFAYSAADGTELTGTWTMEGNKLVGKFKRVDNGKELIAVREISGNELIQTYTYEGVEAKRIFKKE
modifications: PEPTIDE (1)...(131) wild-type rat intestinal fatty acid binding protein
B21: 34H, 72A (protein, listed as Rattus norvegicus)
chain: AFDGTWKVDRNENYEKFMEKMGINVVKRKLGAHHNLKLTITQEGNKFTVKESSNFRNIDVVFELGVDFAYSAADGTELTGTWTMEGNKLVGKFKRVDNGKELIAVREISGNELIQTYTYEGVEAKRIFKKE
modifications: PEPTIDE (1)...(131) wild-type rat intestinal fatty acid binding protein
B22: 34P, 72A (protein, listed as Rattus norvegicus)
chain: AFDGTWKVDRNENYEKFMEKMGINVVKRKLGAHPNLKLTITQEGNKFTVKESSNFRNIDVVFELGVDFAYSAADGTELTGTWTMEGNKLVGKFKRVDNGKELIAVREISGNELIQTYTYEGVEAKRIFKKE
modifications: PEPTIDE (1)...(131) wild-type rat intestinal fatty acid binding protein

The first series in a line: Baseline fluorescence ratio Ro of probe in absence of analyte. To be noted: baseline fluorescence ratio of probe.
With B1, the Ro was 0.317.

The series is the same for the next values; noted with them: baseline fluorescence ratio of probe, no fatty acid.
For the molecule B2, the AvgOfRo is 0.26. B3: the AvgOfRo is reported as 0.52.

As for B4, the AvgOfRo is listed as 0.27. The same measure, in the same setting: then B5, with 0.18; and B6, with 0.36; and B7, with 0.61.

For B1, the AvgOfRo is 0.32.

With B8, the AvgOfRo is listed as 0.37. On the same count and under the same terms, the same measure for B9: 0.37. Turning to B10, the AvgOfRo worked out at 0.51.

B11: the AvgOfRo was determined as 0.16.

For the molecule B12, the AvgOfRo is on record as 0.36. For B13, the AvgOfRo was 0.48. Still for that read-out and setting: the same measure for B14: 0.44. On to B15, for which the AvgOfRo is reported as 0.81. The same measure, in the same setting: then B16, with 0.69; and B17, with 0.46. For the molecule B18, the AvgOfRo is on record as 0.48. For the molecule B19, the AvgOfRo was found to be 0.35. Still for that read-out and setting: the same measure for B20: 0.38.

For B21, the AvgOfRo was 0.37. As to B22, the AvgOfRo came out at 0.42.
